Test results published in PubChem BioAssay AID540256 (National Center for Advancing Translational Sciences (NCATS), 2011).
Screen size: about 300,000 compounds; about 3,700 (1.2%) were called active. This list was built around the results that the source calls inconclusive (neither active nor inactive); the mix of calls is not that of the screen. The call rests on the fitted dose curve; tested in HEK293 cells. A potency beside an inconclusive call is a rough fit, not a confirmed value.

Assay: qHTS for Inhibitors of binding or entry into cells for Lassa Virus; further: nearly all actives have a fitted effect of over 50% in size
Details: Lassa virus pseudotype entry inhibition, cell reporter; activity change, negative = inhibition: at 37.9 µM (top of the series) unless noted
On the % scale 0 is the no-effect control and ±100 the full control effect; potency means the concentration at half of the fitted maximal effect.

SMILES	activity change, negative = inhibition	Potency
COc1ccc(/C=N\NC(=O)COc2ccccc2Cl)cc1Cn1nc(C)cc1C	inactive: -24.3%	
CCn1cc(Br)c(C(=O)N2CCN(c3ccccc3)CC2)n1	inactive: 0.34%	
CCN(CC)S(=O)(=O)c1ccc(C(=O)NCCc2ccccn2)cc1		inconclusive: 1.26 µM [inhibitor, single point]
O=S(=O)(c1ccccc1)c1nc(-c2ccccc2Cl)oc1NCCN1CCOCC1		inconclusive: 0.103 µM [activator, full curve, poor fit]
CC(=S)/C=C1\Sc2ccccc2N1C	inactive: -6.04%	
COc1cccc(N2CCN(c3ncnc4c3[nH]c3ccc(F)cc34)CC2C)c1 (stereo not given)		active: 2.82 µM
CC(=O)NCCC(=O)N(C)CC1CCN(CCc2cccc(C(F)(F)F)c2)CC1	inactive: -2.93% [at 46.1 µM]	
COc1ccc(OC)c(-c2csc(NC(=O)Cc3ccc(OC)c(OC)c3)n2)c1		inconclusive: 6.31 µM [inhibitor, partial curve, poor fit]
CCN(CC)S(=O)(=O)c1cccc(-c2nnc(SCCOc3ccccc3C)o2)c1	inactive: -39.5%	
CCC(=O)Nc1ccccc1C(=O)OCc1cc(=O)n2cc(C)sc2n1		inconclusive: 20 µM [activator, partial curve, poor fit]
COc1cc(N=c2c([N+](=O)[O-])nn(-c3ccc4c(c3)OCCO4)n2O)cc(OC)c1		inconclusive: 35.5 µM [inhibitor, single point]
Cc1cc(Cl)n2ncc(-c3ccccc3)c2n1		inconclusive: 15.8 µM [activator, partial curve, poor fit]
COc1cccc(C(=O)Nc2c3c(nn2-c2ccc(C)cc2C)CS(=O)(=O)C3)c1OC	inactive: -19.7% [at 46.1 µM]	
O=S(=O)(Nc1ncn[nH]1)c1ccc2ccccc2c1		inconclusive: 31.6 µM [activator, single point]
Cc1cccc(N2CCN(c3ncnc4c3cnn4-c3ccc(Cl)cc3)CC2C)c1 (stereo not given)	inactive: -0.91% [at 46.1 µM]	
O=C1/C(=C\c2ccc3c(c2)OCO3)CCC/C1=C/c1ccc2c(c1)OCO2	inactive: 7.66%	
CC(Oc1cc2oc(=O)c3c(c2cc1Cl)CCCC3)C(=O)NCc1ccccn1 (stereo not given)		inconclusive: 2.24 µM [inhibitor, partial curve, poor fit]
CCOc1ccc(-c2noc(CSc3nnc(Cc4ccccc4)n3-c3ccc(F)cc3)n2)cc1		inconclusive: 3.98 µM [inhibitor, full curve]
CCC(c1nnnn1C1CCCC1)N(Cc1cccs1)Cc1cc2cccc(C)c2[nH]c1=O (stereo not given)		inconclusive: 35.5 µM [inhibitor, single point]
C=C1C(=O)O[C@H]2C1CC[C@@](C)(O)C13C=CC(C)(C21)C1(C3)C(=O)O[C@@H]2C3C(C)=CCC3[C@](C)(O)C[C@H](OC(C)=O)C21 (stereo not given in full)		inconclusive: 20.6 µM [inhibitor, partial curve, poor fit]
COc1ccc(N(C)S(=O)(=O)c2ccc3c(c2)n(C)c(=O)c(=O)n3C)cc1	inactive: 4.5% [at 46.1 µM]	
CC(C)CN(CC(C)C)S(=O)(=O)c1ccc(C(=O)Nc2sc3c(c2C(N)=O)CCN(C(C)C)C3)cc1		inconclusive: 0.562 µM [activator, full curve, poor fit]
CCOCCc1nn2c(=O)cc(COC(=O)c3ccccc3NC(=O)CC(C)C)nc2s1	inactive: -2.21% [at 46.1 µM]	
COc1ccc(OS(=O)(=O)c2c(C)noc2C)cc1	inactive: 16% [at 46.1 µM]	

SMILES	activity change, negative = inhibition	Potency
NC(=O)C1CCN(C(=O)COc2ccc3ccccc3c2Br)CC1	inactive: 4.36%	
COC(=O)C1=C(C)NC(=O)NC1c1ccc(OCC(=O)N2CCCCC2)cc1 (stereo not given)	inactive: 2.65%	
CCOC(=O)c1cccc(NC(=O)CC2C(=O)N(c3ccc(F)cc3)C(=O)N2Cc2cccc(OC)c2)c1 (stereo not given)		inconclusive: 35.5 µM [inhibitor, single point]
COc1ccc2ccccc2c1CNCc1ccc(C)cc1	inactive: -5.9% [at 46.1 µM]	
CC(C)=C1SC(N2CCN(Cc3ccccc3)CC2)=NC1=O		inconclusive: 0.0231 µM [inhibitor, full curve, poor fit]
CC1=Nc2cc(C(=O)NC3CCCC3)ccc2Sc2ccc(Cl)cc21		inconclusive: 0.562 µM [inhibitor, full curve]
Cc1nc2oc3ccc(F)cc3c(=O)c2cc1C(=O)O	inactive: 2.59% [at 46.1 µM]	
COc1ccc2nc(SCC(=O)NCc3ccc(OC)c(OC)c3)[nH]c2c1		inconclusive: 3.16 µM [inhibitor, single point]
Cc1onc(C(=O)NCc2cccs2)c1[N+](=O)[O-]	inactive: 15% [at 46.1 µM]	
Cc1[nH]c2ccccc2c1/C=N/Nc1ccccc1[N+](=O)[O-]		inconclusive: 31.6 µM [activator, single point]
COc1ccccc1N1CCN(C2CCN(C(=O)c3ccc(F)cc3)CC2)CC1	inactive: -10.9%	
O=C(CN1CCN(S(=O)(=O)c2ccc(Br)cc2)CC1)N/N=C/c1cc([N+](=O)[O-])ccc1Cl	inactive: 0.805%	
c1ccc(-c2nnc(-c3ccccn3)nc2NC2CCCCC2)cc1		active: 5.01 µM
CCN1CCN(CCCNC(=O)c2cnn(-c3ccc(OC)cc3)c2C2CCN(C(=O)OC(C)(C)C)CC2)CC1		inconclusive: 35.5 µM [inhibitor, single point]
CC(=O)N1CCC(C(=O)Nc2nc(-c3ccccc3)ns2)CC1		inconclusive: 20.6 µM [inhibitor, partial curve, poor fit]
Cc1ccc(C(=O)NC2CCN(CC(=O)Nc3cccc([N+](=O)[O-])c3)CC2)cc1	inactive: -9.82%	
O=[N+]([O-])c1ccc(Oc2ccc(/C=N/O)cc2)nc1	inactive: -14.2% [at 46.1 µM]	
CCCc1nc2c(=O)[nH]c3ccccc3c2o1	inactive: 7.87%	
Cc1ccc(S(=O)(=O)N2CCC(=O)N([C@H](COCc3cccc(C(F)(F)F)c3)C(C)C)CC2)cc1		inconclusive: 3.15 µM [activator, full curve]
CO/N=C(/CS(=O)(=O)c1ccc(Br)cc1)c1ccc(OC)cc1		inconclusive: 35.5 µM [inhibitor, single point]
Cn1ccc2c(-c3ccc(C(N)=O)cc3)cc3c(c21)C1CCC3O1 (stereo not given)		inconclusive: 0.0035 µM [activator, full curve, poor fit]
COc1ccc(-c2[nH]n(-c3ccc([N+](=O)[O-])cc3)c(=O)c2C=NCc2ccncc2)cc1		inconclusive: 35.5 µM [inhibitor, single point]
O=C(NCc1ccco1)c1cc2cc3ccc(Cl)cc3nc2o1		active: 17.8 µM
O=C(CSc1ncccn1)Nc1ccc2[nH]c(=O)[nH]c2c1		inconclusive: 17.8 µM [activator, single point]

Given as comma-separated lines: part of the list above.
SMILES,"activity change, negative = inhibition",Potency
CCOC(=O)c1cccc(NC(=O)CC2C(=O)N(c3ccc(F)cc3)C(=O)N2Cc2cccc(OC)c2)c1 (stereo not given),,"inconclusive: 35.5 µM [inhibitor, single point]"
COc1ccc2ccccc2c1CNCc1ccc(C)cc1,inactive: -5.9% [at 46.1 µM],
CC(C)=C1SC(N2CCN(Cc3ccccc3)CC2)=NC1=O,,"inconclusive: 0.0231 µM [inhibitor, full curve, poor fit]"

(further entries)

SMILES	activity change, negative = inhibition	Potency
Cc1ccc(-c2nc(C#N)c(N3CCC(C(N)=O)CC3)o2)cc1		inconclusive: 3.16 µM [activator, partial curve, poor fit]
O=C(OCc1ccccc1)c1cccnc1Cl	inactive: -9.18%	
Fc1ccc2[nH]c3c(N4CCN(c5ccccc5)CC4)ncnc3c2c1		inconclusive: 35.5 µM [inhibitor, single point]
O=C(NCCN1CCOCC1)Nc1ccc(Cl)cc1Cl		inconclusive: 23.1 µM [activator, single point]
CCOc1ccc(NC(=O)CNC(=O)c2nn(-c3ccc(OC)c(OC)c3)c(=O)c3ccccc23)cc1		inconclusive: 0.562 µM [inhibitor, full curve, poor fit]
COc1ccccc1N(CC(=O)N/N=C/c1c(O)ccc2ccccc12)S(C)(=O)=O		active: 9.2 µM
Cc1ccc(S(=O)(=O)N2CCN(C(=O)c3cc(=O)[nH]c4ccccc34)CC2)c(C)c1		inconclusive: 9.2 µM [inhibitor, single point]
COc1ccc(CNC(=O)c2cc(C)nc3ccccc23)cc1OC		inconclusive: 2 µM [inhibitor, full curve, poor fit]
CC12CCC(C(=O)Nc3nccs3)(OC1=O)C2(C)C (stereo not given)		inconclusive: 16.4 µM [inhibitor, partial curve, poor fit]
COc1cccc(CNC(=O)c2cc3c(=O)n(Cc4cccnc4)ccc3nc2C)c1		inconclusive: 22.4 µM [inhibitor, single point]
O=C(Nc1cccnc1)c1cccc(-c2cc3ccccc3oc2=O)c1	inactive: -5.42% [at 46.1 µM]	
CCc1cc(=O)oc2c(C)c(OCC(=O)N3CCCc4ccccc43)ccc12		inconclusive: 35.5 µM [inhibitor, single point]
CC(C)CC(=O)NC(=S)Nc1ccccc1C(=O)Nc1ccccc1	inactive: -4.14%	
CCC(C)(c1nnnn1-c1c(C)cccc1C)N(N=O)c1cccc(C(F)(F)F)c1 (stereo not given)		inconclusive: 6.31 µM [inhibitor, full curve]
O=C(CSc1nc2ccccc2s1)NCCOc1ccccc1	inactive: 9.2%	
O=C(Nc1ccc(S(=O)(=O)N2CCCC2)cc1)c1ccc(CN2CCOCC2)cc1		inconclusive: 12.6 µM [inhibitor, single point]
CCOC(=O)C1CCN(C(=O)c2c(C)nn(-c3ccc(F)cc3)c2-n2cccc2)CC1	inactive: 18.3% [at 46.1 µM]	
O=C(c1ccccc1Cl)N1CCSCCS1(=O)=O		inconclusive: 0.0353 µM [activator, full curve, poor fit]
COc1cccc(Nc2nc3ccccc3nc2NS(=O)(=O)c2cccs2)c1		inconclusive: 29.1 µM [activator, single point]
Nc1c(C(=O)Nc2ccccc2)nnn1-c1ccc2c(c1)OCCO2		inconclusive: 8.91 µM [inhibitor, single point]
COc1ccc(C(=O)Oc2cc3c4c(c2)C(C)=CC(C)(C)N4C(=O)C3=O)cc1OC	inactive: 12%	
CCN(CC)S(=O)(=O)c1cccc(N=NC2=C(O)CCCC2=O)c1		inconclusive: 0.282 µM [activator, partial curve, poor fit]
